This note sets out measurements from article PMC9485725, “The AIRE G228W mutation disturbs the interaction of AIRE with its partner molecule SIRT1” (Frontiers in Immunology, 2022).

By UniProt entry, the sequences of proteins in these tests, tags left out.
UniProt Q96EB6: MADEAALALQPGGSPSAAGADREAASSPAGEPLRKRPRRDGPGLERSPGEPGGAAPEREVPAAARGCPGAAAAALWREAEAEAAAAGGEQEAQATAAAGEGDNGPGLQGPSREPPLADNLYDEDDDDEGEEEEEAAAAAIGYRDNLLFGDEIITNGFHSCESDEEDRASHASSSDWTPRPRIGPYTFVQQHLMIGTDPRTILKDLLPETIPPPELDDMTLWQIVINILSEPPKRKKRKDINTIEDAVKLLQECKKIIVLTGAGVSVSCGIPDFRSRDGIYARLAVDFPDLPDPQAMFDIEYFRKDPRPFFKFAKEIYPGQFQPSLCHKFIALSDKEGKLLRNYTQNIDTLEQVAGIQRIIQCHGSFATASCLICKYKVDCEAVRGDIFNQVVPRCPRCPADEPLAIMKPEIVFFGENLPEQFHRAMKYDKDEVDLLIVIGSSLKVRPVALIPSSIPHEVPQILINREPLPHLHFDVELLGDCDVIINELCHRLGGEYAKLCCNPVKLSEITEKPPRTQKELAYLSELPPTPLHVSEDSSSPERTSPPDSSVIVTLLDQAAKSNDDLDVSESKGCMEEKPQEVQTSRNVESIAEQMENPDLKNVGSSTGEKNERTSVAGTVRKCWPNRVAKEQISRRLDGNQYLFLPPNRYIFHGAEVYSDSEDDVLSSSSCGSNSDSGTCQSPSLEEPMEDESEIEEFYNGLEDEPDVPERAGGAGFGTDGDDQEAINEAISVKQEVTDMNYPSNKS

No constants are given. Whether binding was seen depends on the method and setting. Some results given as binding are weak or reduced against the parent protein; the word gives no strength.

The target of the experiment is human SIRT1 protein (human) (UniProt Q96EB6). As to the kind of experiment: SPR; Biacore T200; human SIRT1 amine-coupled to a CM5 chip (10 mM sodium acetate pH 4.0 plus 20 uM NAD+); peptides injected at 20, 100 and 200 uM (repeat with 10 to 200 uM), contact 300 s, 20 ul/min, dissociation 1200 s; regeneration 2.0 M glycine pH 2.0 then 2.0 M NaCl; both purified.

With IQQVFESGGSKKCIQVGWEF (acetyl-lysine at the underlined K (K222)) [AIRE G228W mutant SAND domain peptide (positions 211 to 230 of the human AIRE protein)], the binding result is on record as “binds weakly”.

For IQQVFESGGSKKCIQVGGEF (acetyl-lysine at the underlined K (K222)) [AIRE wild-type SAND domain peptide (positions 211 to 230 of the human AIRE protein)], the binding entry was “binds”.
